Binding data for two substances are collected here from PMC10898204.

Protein sequences, listed by entry. Tags and fused reporters are not part of them.
UniProt O43474: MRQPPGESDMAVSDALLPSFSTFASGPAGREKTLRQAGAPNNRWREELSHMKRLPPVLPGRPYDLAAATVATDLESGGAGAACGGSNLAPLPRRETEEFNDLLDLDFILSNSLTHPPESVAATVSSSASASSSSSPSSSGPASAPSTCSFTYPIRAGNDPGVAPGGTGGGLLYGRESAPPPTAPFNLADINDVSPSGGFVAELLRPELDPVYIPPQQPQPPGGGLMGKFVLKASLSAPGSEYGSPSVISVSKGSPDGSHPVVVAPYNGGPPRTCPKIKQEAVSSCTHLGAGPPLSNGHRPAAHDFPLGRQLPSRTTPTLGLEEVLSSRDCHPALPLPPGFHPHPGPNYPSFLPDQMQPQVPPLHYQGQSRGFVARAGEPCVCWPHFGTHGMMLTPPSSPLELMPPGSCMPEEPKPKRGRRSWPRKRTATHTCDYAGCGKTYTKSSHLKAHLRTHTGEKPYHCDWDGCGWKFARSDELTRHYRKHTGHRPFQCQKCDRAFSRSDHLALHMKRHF

Experiment [1] concerns the target T1, TXNIP (expressed from a TXNIP plasmid in HEK293 cells) (UniProt Q9H3M7).
T1 sequence: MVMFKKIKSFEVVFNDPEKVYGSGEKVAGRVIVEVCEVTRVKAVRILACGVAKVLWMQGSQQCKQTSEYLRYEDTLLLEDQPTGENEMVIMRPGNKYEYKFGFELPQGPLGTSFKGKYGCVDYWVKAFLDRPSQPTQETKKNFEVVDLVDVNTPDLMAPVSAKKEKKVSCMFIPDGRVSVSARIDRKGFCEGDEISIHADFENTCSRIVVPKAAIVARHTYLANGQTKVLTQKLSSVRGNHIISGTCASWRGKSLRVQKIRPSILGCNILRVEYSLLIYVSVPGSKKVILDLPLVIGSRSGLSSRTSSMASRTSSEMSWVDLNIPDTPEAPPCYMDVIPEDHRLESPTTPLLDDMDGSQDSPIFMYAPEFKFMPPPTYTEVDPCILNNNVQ
Briefly: co-IP; HEK293 cells transfected with TXNIP plasmid; lysates immunoprecipitated with a TXNIP antibody; co-immunoprecipitated KLF4 detected with an anti-KLF4 antibody.

Experiment [2] concerns the target T2, TXNIP-BD (TXNIP fused to the DNA-binding domain) (UniProt Q9H3M7).
T2 sequence: T1 sequence
Briefly: two-hybrid; yeast two-hybrid; plasmids KLF4-AD and TXNIP-BD; growth on SD-Leu-Trp-His medium.

No constants are given. Whether binding was seen depends on the method and setting. For some assays here: In cells and extracts the contact can be indirect. Some binding calls cover weakened binding; strength is not graded here. For some assays here: Where a sequence is shown, tags or fusion partners need not be part of it.

As for “KLF4 (co-immunoprecipitated from HEK293 lysate) (from UniProt O43474 1-513)”, the binding entry in experiment [1] is on record as “binds”. As for “KLF4-AD (Krüppel-like factor 4 fused to the activation domain) (from UniProt O43474 1-513)”, the binding entry in experiment [2] is “binds”.
